Measurements as given in the supplement of paper PMC12067093, “Discovery and optimisation of a covalent ligand for TRIM25 and its application to targeted protein ubiquitination” (Chemical Science, 2025).
Some of the results follow.

Amino acid sequences for entries named in this document (tags omitted). A change or cut given only in a name is not applied to a line headed by its entry.
UniProt Q96F86: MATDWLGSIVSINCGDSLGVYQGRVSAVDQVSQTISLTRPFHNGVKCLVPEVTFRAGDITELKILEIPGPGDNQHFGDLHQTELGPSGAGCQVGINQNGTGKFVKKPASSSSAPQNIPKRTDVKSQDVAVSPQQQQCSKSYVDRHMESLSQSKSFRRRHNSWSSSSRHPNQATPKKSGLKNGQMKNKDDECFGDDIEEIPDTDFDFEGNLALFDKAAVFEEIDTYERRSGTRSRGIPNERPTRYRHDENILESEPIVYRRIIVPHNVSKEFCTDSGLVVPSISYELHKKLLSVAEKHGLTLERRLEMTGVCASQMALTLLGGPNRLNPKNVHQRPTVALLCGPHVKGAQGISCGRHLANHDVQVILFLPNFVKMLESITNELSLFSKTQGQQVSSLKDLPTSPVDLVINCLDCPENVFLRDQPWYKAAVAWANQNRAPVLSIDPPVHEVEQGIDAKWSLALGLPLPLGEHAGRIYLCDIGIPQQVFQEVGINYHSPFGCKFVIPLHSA
UniProt P05198, whole entry, looked up: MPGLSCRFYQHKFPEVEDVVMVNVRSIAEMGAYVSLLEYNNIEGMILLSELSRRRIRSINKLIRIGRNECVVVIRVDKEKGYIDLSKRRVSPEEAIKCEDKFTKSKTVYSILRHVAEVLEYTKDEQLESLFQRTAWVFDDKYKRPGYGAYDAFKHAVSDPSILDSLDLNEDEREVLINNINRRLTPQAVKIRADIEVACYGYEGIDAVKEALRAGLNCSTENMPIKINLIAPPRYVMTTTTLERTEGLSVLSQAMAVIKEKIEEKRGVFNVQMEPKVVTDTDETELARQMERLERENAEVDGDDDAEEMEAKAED
UniProt Q6P2E9: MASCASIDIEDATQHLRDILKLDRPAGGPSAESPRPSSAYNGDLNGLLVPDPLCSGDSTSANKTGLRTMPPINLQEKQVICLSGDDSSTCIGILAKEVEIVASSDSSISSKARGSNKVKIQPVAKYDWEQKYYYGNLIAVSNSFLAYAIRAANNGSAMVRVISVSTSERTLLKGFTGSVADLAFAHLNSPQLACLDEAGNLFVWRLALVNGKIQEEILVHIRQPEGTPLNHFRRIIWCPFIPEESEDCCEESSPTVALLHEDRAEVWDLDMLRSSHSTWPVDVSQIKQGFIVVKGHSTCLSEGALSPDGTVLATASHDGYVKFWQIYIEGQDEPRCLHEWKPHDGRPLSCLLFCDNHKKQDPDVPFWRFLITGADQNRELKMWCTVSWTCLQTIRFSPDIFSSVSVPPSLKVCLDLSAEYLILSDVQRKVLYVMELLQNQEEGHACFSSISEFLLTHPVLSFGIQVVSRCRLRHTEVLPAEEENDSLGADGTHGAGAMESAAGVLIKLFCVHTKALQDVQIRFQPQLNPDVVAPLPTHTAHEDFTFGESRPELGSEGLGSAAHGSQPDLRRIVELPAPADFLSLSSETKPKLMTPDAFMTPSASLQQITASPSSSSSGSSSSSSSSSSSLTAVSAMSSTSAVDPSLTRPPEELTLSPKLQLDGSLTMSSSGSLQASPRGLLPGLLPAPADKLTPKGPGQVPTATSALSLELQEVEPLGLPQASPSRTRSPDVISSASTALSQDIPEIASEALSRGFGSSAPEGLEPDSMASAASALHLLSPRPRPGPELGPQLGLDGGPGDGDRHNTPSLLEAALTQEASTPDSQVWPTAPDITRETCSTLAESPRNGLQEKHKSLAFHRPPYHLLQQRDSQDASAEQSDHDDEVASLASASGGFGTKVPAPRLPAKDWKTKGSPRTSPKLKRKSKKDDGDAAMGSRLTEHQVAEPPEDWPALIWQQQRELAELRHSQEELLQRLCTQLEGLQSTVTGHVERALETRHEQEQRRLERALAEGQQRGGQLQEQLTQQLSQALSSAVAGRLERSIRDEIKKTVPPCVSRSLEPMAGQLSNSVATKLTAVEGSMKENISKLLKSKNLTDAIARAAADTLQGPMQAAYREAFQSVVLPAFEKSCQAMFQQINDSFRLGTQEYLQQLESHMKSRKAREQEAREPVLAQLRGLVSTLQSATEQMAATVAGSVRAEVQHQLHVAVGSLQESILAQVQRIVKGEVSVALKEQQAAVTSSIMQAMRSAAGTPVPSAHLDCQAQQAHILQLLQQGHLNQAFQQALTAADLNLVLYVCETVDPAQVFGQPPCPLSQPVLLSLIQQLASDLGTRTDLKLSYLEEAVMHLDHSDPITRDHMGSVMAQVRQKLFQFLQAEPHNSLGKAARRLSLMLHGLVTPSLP
UniProt O75530, whole entry, looked up: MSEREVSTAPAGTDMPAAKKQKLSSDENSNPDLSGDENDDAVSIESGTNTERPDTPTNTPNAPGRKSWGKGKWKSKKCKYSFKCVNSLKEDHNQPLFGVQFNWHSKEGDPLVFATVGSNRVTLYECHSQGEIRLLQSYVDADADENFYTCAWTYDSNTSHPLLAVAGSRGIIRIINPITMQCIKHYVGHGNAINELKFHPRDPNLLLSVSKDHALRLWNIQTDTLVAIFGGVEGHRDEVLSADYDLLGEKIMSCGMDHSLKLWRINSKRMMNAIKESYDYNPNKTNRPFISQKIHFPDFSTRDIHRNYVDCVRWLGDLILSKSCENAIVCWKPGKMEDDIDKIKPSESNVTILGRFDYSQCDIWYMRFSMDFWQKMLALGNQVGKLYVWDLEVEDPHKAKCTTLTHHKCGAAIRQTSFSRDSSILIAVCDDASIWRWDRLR
UniProt P20042, whole entry, looked up: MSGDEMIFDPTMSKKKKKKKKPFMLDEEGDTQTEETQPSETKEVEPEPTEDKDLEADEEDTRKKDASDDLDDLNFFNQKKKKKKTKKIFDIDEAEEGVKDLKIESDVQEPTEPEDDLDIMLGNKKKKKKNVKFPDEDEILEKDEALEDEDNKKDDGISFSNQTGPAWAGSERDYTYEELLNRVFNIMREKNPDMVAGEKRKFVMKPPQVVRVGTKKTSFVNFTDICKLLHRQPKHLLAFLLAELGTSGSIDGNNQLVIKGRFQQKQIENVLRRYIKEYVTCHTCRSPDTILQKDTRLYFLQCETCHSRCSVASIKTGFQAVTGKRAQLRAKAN
UniProt P57772: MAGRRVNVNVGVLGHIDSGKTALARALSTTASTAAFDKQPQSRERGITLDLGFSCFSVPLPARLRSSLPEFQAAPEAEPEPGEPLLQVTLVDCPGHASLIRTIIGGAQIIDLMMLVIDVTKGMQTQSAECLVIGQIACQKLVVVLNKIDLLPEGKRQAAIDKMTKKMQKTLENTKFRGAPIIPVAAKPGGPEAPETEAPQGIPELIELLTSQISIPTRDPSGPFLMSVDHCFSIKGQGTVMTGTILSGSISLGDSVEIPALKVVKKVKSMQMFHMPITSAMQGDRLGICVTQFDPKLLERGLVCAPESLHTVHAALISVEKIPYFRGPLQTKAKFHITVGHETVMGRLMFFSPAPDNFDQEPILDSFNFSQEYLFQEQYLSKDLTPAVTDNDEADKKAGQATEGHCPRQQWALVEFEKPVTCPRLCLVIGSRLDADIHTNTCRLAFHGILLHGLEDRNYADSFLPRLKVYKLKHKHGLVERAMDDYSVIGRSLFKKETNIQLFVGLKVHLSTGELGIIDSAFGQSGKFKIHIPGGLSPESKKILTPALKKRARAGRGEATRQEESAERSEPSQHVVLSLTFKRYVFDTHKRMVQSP
UniProt P47813, whole entry, looked up: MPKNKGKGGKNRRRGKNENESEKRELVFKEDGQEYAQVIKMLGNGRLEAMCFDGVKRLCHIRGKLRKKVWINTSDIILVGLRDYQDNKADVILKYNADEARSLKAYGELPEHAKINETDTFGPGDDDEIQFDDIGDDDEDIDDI
UniProt Q15075: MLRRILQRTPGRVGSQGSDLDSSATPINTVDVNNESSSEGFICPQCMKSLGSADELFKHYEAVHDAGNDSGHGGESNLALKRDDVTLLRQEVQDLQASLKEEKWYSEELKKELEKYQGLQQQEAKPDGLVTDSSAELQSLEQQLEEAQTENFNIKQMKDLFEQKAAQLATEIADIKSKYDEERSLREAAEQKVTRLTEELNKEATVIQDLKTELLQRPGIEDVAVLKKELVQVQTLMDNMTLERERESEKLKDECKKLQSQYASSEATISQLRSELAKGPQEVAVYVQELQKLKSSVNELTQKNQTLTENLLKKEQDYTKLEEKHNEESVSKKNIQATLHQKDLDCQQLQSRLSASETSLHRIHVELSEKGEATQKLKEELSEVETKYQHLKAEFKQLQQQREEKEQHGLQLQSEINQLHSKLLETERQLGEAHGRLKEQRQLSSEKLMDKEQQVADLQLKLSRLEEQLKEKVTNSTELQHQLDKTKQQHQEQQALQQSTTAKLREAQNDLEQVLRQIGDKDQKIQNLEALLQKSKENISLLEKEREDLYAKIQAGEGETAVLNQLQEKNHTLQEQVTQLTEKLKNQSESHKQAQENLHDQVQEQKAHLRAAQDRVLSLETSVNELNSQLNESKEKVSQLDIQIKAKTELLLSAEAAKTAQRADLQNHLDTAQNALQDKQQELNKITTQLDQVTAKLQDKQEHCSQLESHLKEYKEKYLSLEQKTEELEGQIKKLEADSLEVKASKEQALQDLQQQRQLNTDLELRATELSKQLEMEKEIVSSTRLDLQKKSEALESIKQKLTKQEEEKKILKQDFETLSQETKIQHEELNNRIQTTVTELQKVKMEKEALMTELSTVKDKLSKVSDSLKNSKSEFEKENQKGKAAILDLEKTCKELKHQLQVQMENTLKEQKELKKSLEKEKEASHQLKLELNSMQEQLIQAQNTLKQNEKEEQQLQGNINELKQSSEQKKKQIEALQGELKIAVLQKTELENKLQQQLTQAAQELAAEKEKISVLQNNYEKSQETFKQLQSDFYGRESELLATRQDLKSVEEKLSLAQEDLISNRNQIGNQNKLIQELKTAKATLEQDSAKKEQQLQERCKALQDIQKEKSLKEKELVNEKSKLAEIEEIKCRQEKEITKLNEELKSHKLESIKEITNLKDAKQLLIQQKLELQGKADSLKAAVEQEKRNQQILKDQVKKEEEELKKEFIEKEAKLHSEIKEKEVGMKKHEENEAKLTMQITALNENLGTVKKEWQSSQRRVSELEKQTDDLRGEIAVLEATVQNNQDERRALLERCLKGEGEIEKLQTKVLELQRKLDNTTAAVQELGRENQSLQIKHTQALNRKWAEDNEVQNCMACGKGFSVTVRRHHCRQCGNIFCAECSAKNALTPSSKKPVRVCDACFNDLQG
UniProt P42126: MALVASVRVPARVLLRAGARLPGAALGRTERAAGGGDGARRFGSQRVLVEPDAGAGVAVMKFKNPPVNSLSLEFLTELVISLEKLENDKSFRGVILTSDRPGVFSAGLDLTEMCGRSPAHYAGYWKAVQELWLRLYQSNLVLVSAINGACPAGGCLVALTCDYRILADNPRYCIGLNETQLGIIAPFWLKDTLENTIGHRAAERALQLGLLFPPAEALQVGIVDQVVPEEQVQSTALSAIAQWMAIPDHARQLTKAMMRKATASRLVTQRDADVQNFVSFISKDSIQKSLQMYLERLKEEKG
UniProt Q9H8V3: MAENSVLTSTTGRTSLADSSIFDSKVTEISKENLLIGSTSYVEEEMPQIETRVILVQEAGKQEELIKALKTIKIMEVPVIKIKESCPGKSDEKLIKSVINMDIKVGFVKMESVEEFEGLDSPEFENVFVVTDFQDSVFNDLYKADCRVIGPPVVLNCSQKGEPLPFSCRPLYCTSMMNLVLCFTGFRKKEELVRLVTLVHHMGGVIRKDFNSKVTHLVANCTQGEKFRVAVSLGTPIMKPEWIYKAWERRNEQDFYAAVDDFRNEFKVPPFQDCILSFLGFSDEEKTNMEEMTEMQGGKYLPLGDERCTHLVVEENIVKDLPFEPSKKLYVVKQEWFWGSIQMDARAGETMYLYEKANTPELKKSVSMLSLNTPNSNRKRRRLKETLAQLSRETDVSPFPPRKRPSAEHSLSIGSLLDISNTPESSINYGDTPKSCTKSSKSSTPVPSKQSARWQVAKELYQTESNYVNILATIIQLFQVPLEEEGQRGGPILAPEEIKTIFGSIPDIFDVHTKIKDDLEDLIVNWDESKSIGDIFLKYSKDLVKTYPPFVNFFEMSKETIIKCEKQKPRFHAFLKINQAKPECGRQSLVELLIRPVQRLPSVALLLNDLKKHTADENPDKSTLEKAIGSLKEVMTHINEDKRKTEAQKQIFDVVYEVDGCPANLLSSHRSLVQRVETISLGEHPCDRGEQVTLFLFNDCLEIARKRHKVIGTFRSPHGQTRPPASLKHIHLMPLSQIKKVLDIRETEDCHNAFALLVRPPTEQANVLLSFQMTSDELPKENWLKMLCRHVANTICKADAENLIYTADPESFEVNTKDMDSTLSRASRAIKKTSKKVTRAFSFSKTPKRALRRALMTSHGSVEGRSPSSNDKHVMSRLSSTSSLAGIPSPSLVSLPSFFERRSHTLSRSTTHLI

Compound: Cc1cc(ccc1-c1ccccc1)C(=O)N1CCCN(CC1)C(=O)CCl [compound 10]
Test: probe-labelled cysteine peptide fold change vs DMSO (competition) (log2 fold change); higher = less target engagement (more negative = stronger competition)
Settings: THP-1, incubation time: 4 h
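Also: competitive profiling in live THP-1 cells: cysteine peptides tagged with an iodoacetamide desthiobiotin (IA-DTB) probe, intensity after compound treatment relative to DMSO-treated cells.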

Target	probe-labelled cysteine peptide fold change (10 µM)	probe-labelled cysteine peptide fold change (50 µM)
EFTUD2_Q15029_144+148_TCFVDCLIEQTHPEIRK (UniProt Q15029)	-0.133	-0.385
EIF2D_P41214_301_ADLPLLTSTFLGSHMFSCCPEGR (UniProt P41214)	0.198	0.129
EDC3_Q96F86_477_IYLCDIGIPQQVFQEVGINYHSPFGCK (UniProt Q96F86)	0.342	-0.513
EIF2S1_P05198_70_NECVVVIR (UniProt P05198)	0.116	0.42
EDC4_Q6P2E9_4_ASCASIDIEDATQHLR (UniProt Q6P2E9)	-0.0991	0.278
ECPAS_Q5VYK3_1459_TSCALTIHAIGR (UniProt Q5VYK3)	0.0645	0.102
EEF1A1_P68104_363+370_NDPPMEAAGFTAQVIILNHPGQISAGYAPVLDCHTAHIACK (UniProt P68104)	-0.143	-0.158
EIF2AK4_Q9P2K8_285_CIGSDEQLGK (UniProt Q9P2K8)	-0.0549	-0.0607
EED_O75530_324_SCENAIVCWKPGK (UniProt O75530)	0.0669	-0.244
EEF1D_P29692_217_SSILLDVKPWDDETDMAQLEACVR (UniProt P29692)	0.162	0.208
EHMT1_Q9H9B1_954_YDCVVLFLSR (UniProt Q9H9B1)	0.432	0.511
EIF2S1_P05198_218_AGLNCSTENMPIK (UniProt P05198)	-0.0254	-0.158
EIF2S2_P20042_309_CSVASIK (UniProt P20042)	-0.0864	-0.0821
EED_O75530_182_IINPITMQCIK (UniProt O75530)	-0.0539	-0.0919
EEFSEC_P57772_289_LGICVTQFDPK (UniProt P57772)	0.134	0.0218
EHMT1_Q9H9B1_58_QAGEAHMAADGETNGSCENSDASSHANAAK (UniProt Q9H9B1)	-0.0491	-0.171
EEF1A1_P68104_234_KDGNASGTTLLEALDCILPPTRPTDKPLR (UniProt P68104)	-0.0544	-0.699
EIF1AX_P47813_51_LEAMCFDGVK (UniProt P47813)	0.115	0.162
EEA1_Q15075_346_DLDCQQLQSR (UniProt Q15075)	-0.122	-0.0468

2 entries from above in another layout.
EIF2S1_P05198_70_NECVVVIR (UniProt P05198)
  probe-labelled cysteine peptide fold change (10 µM): 0.116; probe-labelled cysteine peptide fold change (50 µM): 0.42
EIF1AX_P47813_51_LEAMCFDGVK (UniProt P47813)
  probe-labelled cysteine peptide fold change (10 µM): 0.115; probe-labelled cysteine peptide fold change (50 µM): 0.162

Continued:

Target	probe-labelled cysteine peptide fold change (10 µM)	probe-labelled cysteine peptide fold change (50 µM)
EEF2_P13639_369_YRCELLYEGPPDDEAAMGIK (UniProt P13639)	-0.316	-0.329
EEFSEC_P57772_442_LDADIHTNTCR (UniProt P57772)	-0.204	-1.14
ECI1_P42126_114_GVILTSDRPGVFSAGLDLTEMCGR (UniProt P42126)	0.00835	0.131
ECPAS_Q5VYK3_116_QCELAPTLLTAMEGKPQPQQDSLMHLLIPTLFHMK (UniProt Q5VYK3)	0.0996	0.0921
ECPAS_Q5VYK3_1183_ESSCLALNDLLR (UniProt Q5VYK3)	-0.235	0.0786
EFTUD2_Q15029_639_SYPSLTTKVEESGEHVILGTGELYLDCVMHDLRK (UniProt Q15029)	-0.296	-0.695
EEF2_P13639_728_CLYASVLTAQPR (UniProt P13639)	-0.0983	-0.0617
EFTUD2_Q15029_842_LMEPYYFVEVQAPADCVSAVYTVLAR (UniProt Q15029)	0.205	0.658
EEF1A1_P68104_234_KDGNASGTTLLEALDCILPPTR (UniProt P68104)	-0.0469	-0.0163
EIF2A_Q9BY44_377_LISKPVASDSTYFAWCPDGEHILTATCAPR (UniProt Q9BY44)	-0.077	-0.141
EED_O75530_401_CTTLTHHK (UniProt O75530)	-0.000298	-0.134
EIF3A_Q14152_58_YLELCVDLRK (UniProt Q14152)	-0.0828	-0.139
EHMT2_Q96KQ7_1115_FINHLCDPNIIPVR (UniProt Q96KQ7)	0.1	0.215
EIF2S3_P41091_96+101_LDDPSCPRPECYR (UniProt P41091)	-0.389	-0.339
EIF2S2_P20042_281+284_EYVTCHTCR (UniProt P20042)	-0.0391	-0.0656
EHHADH_Q08426_227+233_QHPGCLAQEACVR (UniProt Q08426)	0.185	0.478
EDC4_Q6P2E9_838_ETCSTLAESPR (UniProt Q6P2E9)	-0.291	-0.151
ECT2_Q9H8V3_686_VETISLGEHPCDR (UniProt Q9H8V3)	0.0694	-0.0551
